Results as given in the supplement of paper PMC10849652.
Some of the results follow.

Protein sequences, listed by entry. Tags and fused reporters are not part of them. Lines headed by an entry give the natural chain unless they say otherwise; changes in a name come on top.
UniProt Q86YB8: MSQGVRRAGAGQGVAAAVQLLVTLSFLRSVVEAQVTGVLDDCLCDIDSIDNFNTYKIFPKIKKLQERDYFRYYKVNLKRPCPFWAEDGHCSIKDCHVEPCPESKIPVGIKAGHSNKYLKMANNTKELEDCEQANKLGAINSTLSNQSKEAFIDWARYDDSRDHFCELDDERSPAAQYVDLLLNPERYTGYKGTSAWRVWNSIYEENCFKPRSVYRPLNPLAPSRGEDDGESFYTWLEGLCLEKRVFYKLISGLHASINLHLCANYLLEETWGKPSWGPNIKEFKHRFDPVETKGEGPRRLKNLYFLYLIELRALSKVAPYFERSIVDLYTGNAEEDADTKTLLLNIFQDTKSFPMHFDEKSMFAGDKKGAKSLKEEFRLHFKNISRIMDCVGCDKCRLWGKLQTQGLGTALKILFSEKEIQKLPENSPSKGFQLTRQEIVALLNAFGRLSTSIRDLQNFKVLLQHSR
UniProt O43414: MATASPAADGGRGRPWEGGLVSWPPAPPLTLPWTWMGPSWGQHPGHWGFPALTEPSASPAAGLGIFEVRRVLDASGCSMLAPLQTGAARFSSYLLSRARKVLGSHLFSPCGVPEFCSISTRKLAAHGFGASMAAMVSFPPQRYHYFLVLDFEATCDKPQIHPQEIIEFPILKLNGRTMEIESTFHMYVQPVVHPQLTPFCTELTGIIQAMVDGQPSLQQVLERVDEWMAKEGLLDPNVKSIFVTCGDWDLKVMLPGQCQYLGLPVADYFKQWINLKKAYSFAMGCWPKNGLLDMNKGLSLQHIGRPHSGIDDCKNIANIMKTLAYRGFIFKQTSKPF
UniProt Q8IUD2: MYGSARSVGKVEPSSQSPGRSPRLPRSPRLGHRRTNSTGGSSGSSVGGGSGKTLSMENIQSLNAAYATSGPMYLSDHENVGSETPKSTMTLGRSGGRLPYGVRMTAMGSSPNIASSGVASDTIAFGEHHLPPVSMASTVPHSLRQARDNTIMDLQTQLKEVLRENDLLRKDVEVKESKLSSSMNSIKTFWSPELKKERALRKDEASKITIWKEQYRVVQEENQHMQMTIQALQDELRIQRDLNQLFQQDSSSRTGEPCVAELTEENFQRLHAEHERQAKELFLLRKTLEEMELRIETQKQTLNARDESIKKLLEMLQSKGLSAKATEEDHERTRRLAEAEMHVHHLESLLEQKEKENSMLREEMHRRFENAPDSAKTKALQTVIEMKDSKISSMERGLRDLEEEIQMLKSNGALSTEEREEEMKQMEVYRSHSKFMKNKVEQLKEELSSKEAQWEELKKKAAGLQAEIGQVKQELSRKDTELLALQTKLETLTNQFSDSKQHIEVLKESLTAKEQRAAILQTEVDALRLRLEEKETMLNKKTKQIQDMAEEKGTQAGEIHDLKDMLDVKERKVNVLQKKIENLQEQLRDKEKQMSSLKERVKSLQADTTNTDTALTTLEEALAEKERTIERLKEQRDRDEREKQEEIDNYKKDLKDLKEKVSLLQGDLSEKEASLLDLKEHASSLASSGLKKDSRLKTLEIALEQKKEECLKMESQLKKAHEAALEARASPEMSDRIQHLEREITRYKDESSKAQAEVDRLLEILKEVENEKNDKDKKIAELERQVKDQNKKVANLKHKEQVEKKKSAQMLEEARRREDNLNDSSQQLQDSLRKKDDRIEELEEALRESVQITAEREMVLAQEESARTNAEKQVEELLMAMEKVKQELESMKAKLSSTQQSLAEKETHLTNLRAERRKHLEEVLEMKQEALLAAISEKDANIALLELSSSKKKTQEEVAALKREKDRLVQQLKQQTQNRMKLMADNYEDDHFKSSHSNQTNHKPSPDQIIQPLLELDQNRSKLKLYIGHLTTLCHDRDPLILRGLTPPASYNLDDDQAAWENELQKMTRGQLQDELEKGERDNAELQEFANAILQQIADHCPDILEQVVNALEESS
UniProt P16930: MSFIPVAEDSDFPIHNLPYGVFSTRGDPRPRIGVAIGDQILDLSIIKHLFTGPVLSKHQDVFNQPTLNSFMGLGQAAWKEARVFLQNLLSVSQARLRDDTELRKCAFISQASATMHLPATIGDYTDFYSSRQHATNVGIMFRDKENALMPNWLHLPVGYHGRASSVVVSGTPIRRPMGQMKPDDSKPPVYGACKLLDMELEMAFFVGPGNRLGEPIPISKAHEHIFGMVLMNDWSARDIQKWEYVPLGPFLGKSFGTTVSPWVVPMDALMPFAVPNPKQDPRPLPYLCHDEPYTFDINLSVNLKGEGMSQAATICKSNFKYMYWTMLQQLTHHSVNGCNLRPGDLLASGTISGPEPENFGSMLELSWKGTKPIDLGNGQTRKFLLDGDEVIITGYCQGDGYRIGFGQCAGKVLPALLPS
UniProt Q9Y624, whole entry, looked up, stated change not applied: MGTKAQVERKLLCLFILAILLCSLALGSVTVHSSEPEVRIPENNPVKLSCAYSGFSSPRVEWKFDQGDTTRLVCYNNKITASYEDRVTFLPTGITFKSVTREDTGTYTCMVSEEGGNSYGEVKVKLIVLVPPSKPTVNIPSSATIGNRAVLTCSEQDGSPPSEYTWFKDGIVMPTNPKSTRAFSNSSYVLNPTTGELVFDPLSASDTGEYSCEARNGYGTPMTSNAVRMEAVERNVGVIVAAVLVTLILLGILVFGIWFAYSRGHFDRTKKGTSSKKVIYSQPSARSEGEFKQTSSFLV
UniProt Q969X5: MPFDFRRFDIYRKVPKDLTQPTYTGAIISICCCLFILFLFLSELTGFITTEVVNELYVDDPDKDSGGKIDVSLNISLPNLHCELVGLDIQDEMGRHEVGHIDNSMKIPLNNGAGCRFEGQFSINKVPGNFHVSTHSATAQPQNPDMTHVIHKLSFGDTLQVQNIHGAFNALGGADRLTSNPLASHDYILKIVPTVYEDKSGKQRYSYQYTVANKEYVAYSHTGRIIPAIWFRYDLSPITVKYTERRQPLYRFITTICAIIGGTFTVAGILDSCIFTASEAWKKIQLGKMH
UniProt Q16134: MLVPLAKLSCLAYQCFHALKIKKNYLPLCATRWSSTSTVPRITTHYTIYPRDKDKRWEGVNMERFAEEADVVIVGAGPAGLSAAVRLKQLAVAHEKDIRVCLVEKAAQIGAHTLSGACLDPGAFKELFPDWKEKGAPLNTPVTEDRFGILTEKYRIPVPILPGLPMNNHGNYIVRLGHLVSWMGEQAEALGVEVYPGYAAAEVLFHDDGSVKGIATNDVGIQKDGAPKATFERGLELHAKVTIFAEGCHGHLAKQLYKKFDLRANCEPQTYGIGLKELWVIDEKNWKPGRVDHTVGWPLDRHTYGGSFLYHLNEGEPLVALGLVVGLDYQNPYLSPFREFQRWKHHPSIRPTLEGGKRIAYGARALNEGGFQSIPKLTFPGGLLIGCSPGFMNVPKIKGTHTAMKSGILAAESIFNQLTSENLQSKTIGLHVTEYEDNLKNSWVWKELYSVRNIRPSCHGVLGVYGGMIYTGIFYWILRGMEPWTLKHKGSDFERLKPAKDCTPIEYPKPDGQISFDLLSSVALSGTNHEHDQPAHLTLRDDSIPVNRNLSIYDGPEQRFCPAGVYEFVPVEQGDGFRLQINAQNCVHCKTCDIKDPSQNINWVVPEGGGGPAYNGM
UniProt Q96PL5: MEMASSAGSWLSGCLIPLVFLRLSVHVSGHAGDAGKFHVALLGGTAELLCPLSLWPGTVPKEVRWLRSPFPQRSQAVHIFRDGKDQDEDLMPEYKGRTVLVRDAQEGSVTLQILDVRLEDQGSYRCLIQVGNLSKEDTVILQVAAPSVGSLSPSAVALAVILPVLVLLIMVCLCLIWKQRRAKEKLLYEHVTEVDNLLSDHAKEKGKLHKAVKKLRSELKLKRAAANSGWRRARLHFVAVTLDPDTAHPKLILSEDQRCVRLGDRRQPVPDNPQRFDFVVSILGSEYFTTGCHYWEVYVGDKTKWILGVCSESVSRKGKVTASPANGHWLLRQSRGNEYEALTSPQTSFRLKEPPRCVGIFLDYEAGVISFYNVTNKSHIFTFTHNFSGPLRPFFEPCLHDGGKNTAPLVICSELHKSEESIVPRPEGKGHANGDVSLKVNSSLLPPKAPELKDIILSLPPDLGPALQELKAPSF
UniProt Q9GZU8: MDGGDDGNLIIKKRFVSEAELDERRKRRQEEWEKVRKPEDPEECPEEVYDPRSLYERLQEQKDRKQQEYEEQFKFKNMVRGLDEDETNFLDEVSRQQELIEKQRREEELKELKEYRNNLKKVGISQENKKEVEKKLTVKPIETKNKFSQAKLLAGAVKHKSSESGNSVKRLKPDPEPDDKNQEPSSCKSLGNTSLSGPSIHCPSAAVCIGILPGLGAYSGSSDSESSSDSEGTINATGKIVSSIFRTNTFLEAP
UniProt P11474: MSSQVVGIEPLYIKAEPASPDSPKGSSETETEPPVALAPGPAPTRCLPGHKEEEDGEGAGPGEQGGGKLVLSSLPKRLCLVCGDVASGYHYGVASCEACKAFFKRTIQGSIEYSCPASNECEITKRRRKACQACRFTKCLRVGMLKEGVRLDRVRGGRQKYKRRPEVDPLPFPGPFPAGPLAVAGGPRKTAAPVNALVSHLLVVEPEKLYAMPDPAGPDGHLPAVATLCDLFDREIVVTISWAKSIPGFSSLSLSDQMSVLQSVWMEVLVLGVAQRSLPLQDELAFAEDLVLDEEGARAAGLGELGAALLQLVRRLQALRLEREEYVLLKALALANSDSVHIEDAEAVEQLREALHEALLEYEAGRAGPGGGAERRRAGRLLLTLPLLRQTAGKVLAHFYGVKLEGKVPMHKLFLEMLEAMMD
UniProt Q5RKV6, whole entry, looked up: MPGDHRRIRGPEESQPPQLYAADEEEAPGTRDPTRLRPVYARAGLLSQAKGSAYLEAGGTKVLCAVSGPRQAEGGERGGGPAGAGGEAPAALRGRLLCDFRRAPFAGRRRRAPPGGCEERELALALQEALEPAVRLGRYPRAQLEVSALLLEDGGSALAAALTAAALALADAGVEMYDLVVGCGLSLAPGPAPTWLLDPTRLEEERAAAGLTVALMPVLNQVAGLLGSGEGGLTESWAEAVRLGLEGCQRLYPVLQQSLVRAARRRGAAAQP
UniProt Q9NQT4, whole entry, looked up: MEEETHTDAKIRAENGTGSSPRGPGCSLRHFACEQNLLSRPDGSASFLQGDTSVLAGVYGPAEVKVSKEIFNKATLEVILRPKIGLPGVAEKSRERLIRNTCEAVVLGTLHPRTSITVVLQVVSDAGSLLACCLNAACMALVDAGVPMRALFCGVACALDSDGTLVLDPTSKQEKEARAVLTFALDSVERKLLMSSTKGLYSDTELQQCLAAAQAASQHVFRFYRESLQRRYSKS
UniProt Q15024, whole entry, looked up: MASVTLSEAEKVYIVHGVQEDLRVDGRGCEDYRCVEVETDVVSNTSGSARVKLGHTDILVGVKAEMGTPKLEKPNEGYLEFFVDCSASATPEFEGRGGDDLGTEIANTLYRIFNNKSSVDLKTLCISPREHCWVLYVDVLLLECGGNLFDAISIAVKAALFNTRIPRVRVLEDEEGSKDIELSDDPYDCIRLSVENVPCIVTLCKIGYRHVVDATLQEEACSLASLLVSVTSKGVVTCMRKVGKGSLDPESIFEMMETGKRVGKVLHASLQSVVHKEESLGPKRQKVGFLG
UniProt O95208: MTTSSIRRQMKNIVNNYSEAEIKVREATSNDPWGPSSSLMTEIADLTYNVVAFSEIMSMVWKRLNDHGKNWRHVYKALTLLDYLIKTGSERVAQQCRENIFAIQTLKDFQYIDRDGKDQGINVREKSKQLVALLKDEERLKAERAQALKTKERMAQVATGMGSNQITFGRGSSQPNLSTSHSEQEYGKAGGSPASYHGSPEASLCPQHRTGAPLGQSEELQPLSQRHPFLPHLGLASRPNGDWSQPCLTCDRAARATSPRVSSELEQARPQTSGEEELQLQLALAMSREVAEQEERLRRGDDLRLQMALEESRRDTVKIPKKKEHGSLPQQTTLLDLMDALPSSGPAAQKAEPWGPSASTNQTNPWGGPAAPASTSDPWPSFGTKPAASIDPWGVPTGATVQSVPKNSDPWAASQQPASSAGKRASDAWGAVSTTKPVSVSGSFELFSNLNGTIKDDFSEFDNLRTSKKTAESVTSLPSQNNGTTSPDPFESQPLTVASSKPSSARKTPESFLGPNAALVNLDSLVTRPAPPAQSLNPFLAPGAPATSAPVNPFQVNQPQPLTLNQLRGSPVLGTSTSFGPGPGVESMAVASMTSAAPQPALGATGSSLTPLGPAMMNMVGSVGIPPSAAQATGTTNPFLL

Legend:
Experiment in all cases: log2 fold change, soluble protein after heating vs DMSO (PISA); higher = thermal stabilisation; K562 cells, 10 uM, 30 min; active = over 0.2 and 3.5 SD of the protein, either way, in both replicates (recomputed)
[1] = compound: CC[C@@H]1C(=O)N(C)c2cnc(Nc3ccc(C(=O)NC4CCN(C)CC4)cc3OC)nc2N1C1CCCC1
Method in brief: (§1)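 Quantification of soluble protein used TMTpro 16plex LC-MS/MS, with channel sums equalised. Samples were the supernatant after 21,000xg for 90 min of pooled aliquots from K562 cells (2×10^6 cells/mL) treated with 10 μM compound for 30 min, heated for 3 min over 48°C-58°C, and extracted in PBS with 0.5% NP-40 at 4°C. Values, from duplicates, describe thermal stability against control samples on a log2 fold-change scale.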

volasertib = compound: CC[C@@H]1C(=O)N(C)c2cnc(Nc3ccc(C(=O)N[C@H]4CC[C@H](N5CCN(CC6CC6)CC5)CC4)cc3OC)nc2N1C(C)C [volasertib]
Method in brief: as §1

[2] = compound: CC[C@H](C)N1C=C(C2=C(C=C(C=C21)C3=CN=C(C=C3)N4CCNCC4)C(=O)NCC5=C(C=C(NC5=O)C)C)C
Method in brief: as §1

epoxomicin = compound: CC[C@H](C)[C@@H](C(=O)N[C@@H]([C@@H](C)O)C(=O)N[C@@H](CC(C)C)C(=O)[C@]1(CO1)C)NC(=O)[C@H]([C@@H](C)CC)N(C)C(=O)C [epoxomicin]
Method in brief: as §1

[3] = compound: CCn1c(C(=O)N(C2CC2)C2CC2)cc2c3c(ncn3C)c(Nc3cc(C)n(C)n3)nc21
Method in brief: as §1

[4] = compound: CN(C)CC(=O)Nc1ccc2[nH]c(=O)c3ccccc3c2c1
Method in brief: as §1

rosiglitazone = compound: CN(CCOC1=CC=C(C=C1)C[C@H]2C(=O)NC(=O)S2)C3=CC=CC=N3 (racemic) [rosiglitazone]
Method in brief: as §1

[5] = compound: CN1C2=C(C3=C1C(=O)N(N=C3)CC4=CC(=CC=C4)N)SC(=C2)S(=O)C
Method in brief: as §1

saracatinib = compound: CN1CCN(CCOc2cc(OC3CCOCC3)c3c(Nc4c(Cl)ccc5c4OCO5)ncnc3c2)CC1 [saracatinib]
Method in brief: as §1

sotrastaurin = compound: CN1CCN(c2nc(C3=C(c4c[nH]c5ccccc45)C(=O)NC3=O)c3ccccc3n2)CC1 [sotrastaurin]
Method in brief: as §1

alvocidib = compound: CN1CC[C@H](c2c(O)cc(O)c3c(=O)cc(-c4ccccc4Cl)oc23)[C@H](O)C1 [alvocidib]
Method in brief: as §1

[6] = compound: CNC(=O)C1=CC=CC=C1NC2=NC(=NC=C2Cl)NC3=C(C=C(C=C3)N4CCOCC4)OC
Method in brief: as §1

defactinib = compound: CNC(=O)c1ccc(Nc2ncc(C(F)(F)F)c(NCc3nccnc3N(C)S(C)(=O)=O)n2)cc1 [defactinib]
Method in brief: as §1

rucaparib = compound: CNCc1ccc(-c2[nH]c3cc(F)cc4c3c2CCNC4=O)cc1 [rucaparib]
Method in brief: as §1

[7] = compound: CNc1nc(-c2ccc3c(N)n[nH]c3c2)cc(N2C[C@@H](C(=O)NC3CCCCC3)CC[C@H]2C)n1
Method in brief: as §1

encorafenib = compound: COC(=O)N[C@@H](C)CNc1nccc(-c2cn(C(C)C)nc2-c2cc(Cl)cc(NS(C)(=O)=O)c2F)n1 [encorafenib]
Method in brief: as §1

[8] = compound: COC(=O)[C@H](CCSC)NC(=O)C1=C(C=C(C=C1)NC[C@H](CS)N)C2=CC=CC=C2
Method in brief: as §1

[9] = compound: CCn1cc(-c2ccnc3[nH]c(-c4cccc(CN(C)C)c4)cc23)c(-c2ccc(NC(=O)N(C)C)cc2)n1
Method in brief: as §1

[10] = compound: CN1CCC(CNc2ccc3ncc(-c4cccc(OC(F)(F)F)c4)n3n2)CC1
Method in brief: as §1

Tubastatin A = compound: CN1CCc2c(c3ccccc3n2Cc2ccc(C(=O)NO)cc2)C1 [Tubastatin A]
Method in brief: as §1

Measured: log2 fold change

ERO1B (UniProt Q86YB8)
inactive: [1] 0.197 | volasertib 0.051 | [2] 0.024 | epoxomicin 0.051 | [3] 0.003 | [4] -0.018 | rosiglitazone 0.105 | [5] 0.042 | saracatinib -0.053 | sotrastaurin 0.101 | alvocidib 0.045 | [6] -0.024 | defactinib -0.082 | rucaparib 0.117 | [7] -0.136 | encorafenib 0.17 | [8] 0.164

ERI3 (UniProt O43414)
inactive: [1] 0.032 | volasertib 0.072 | [2] 0.024 | epoxomicin 0.004 | [3] -0.003 | [9] -0.126 | [4] 0.047 | rosiglitazone 0.004 | [5] -0.006 | [10] -0.012 | saracatinib -0.003 | sotrastaurin 0.012 | alvocidib -0.032 | Tubastatin A 0.013 | [6] 0.021 | defactinib -0.013 | rucaparib -0.146 | [7] -0.056 | encorafenib -0.007 | [8] 0.047

ERC1 (UniProt Q8IUD2)
inactive: [1] 0.009 | volasertib -0.205 | [2] -0.166 | epoxomicin 0.036 | [3] 0.015 | [9] -0.081 | [4] -0.016 | rosiglitazone -0.016 | [5] 0.094 | [10] -0.104 | saracatinib -0.014 | sotrastaurin -0.24 | alvocidib 0.029 | Tubastatin A 0.165 | [6] -0.072 | defactinib -0.086 | rucaparib -0.005 | [7] -0.025 | encorafenib -0.176 | [8] -0.002

FAH isoform 2 (UniProt P16930)
inactive: [1] 0.131 | volasertib 0.057 | [2] 0 | epoxomicin -0.027 | [3] -0.187 | [9] 0.128 | [4] -0.058 | rosiglitazone 0.058 | [5] -0.061 | [10] 0.019 | saracatinib 0.03 | sotrastaurin 0.001 | alvocidib 0.06 | Tubastatin A -0.032 | [6] 0.021 | defactinib 0 | rucaparib -0.365 | [7] -0.128 | encorafenib 0.113 | [8] 0.054

FAM136A (UniProt Q96C01)
inactive: [1] 0.042 | volasertib 0.053 | [2] -0.003 | epoxomicin -0.005 | [3] 0.017 | [9] -0.035 | [4] -0.053 | rosiglitazone 0.012 | [5] -0.051 | [10] -0.013 | saracatinib 0.016 | sotrastaurin 0.013 | alvocidib -0.009 | Tubastatin A 0 | [6] -0.019 | defactinib 0.004 | rucaparib -0.049 | [7] -0.016 | encorafenib -0.02 | [8] -0.012

F11R (UniProt Q9Y624)
inactive: [1] 0.128 | volasertib 0.062 | [2] -0.031 | epoxomicin -0.017 | [3] 0.03 | [9] -0.022 | [4] -0.043 | rosiglitazone -0.009 | [5] -0.069 | [10] 0.094 | saracatinib 0.021 | sotrastaurin 0.06 | alvocidib -0.025 | Tubastatin A -0.021 | [6] 0.008 | defactinib -0.057 | rucaparib 0.021 | [7] 0.014 | encorafenib 0 | [8] 0.031

ERGIC1 (UniProt Q969X5)
inactive: [1] 0.005 | volasertib -0.004 | [2] -0.066 | epoxomicin 0.015 | [3] 0.035 | [9] -0.007 | [4] -0.01 | rosiglitazone 0.016 | [5] -0.029 | [10] -0.016 | saracatinib -0.013 | sotrastaurin 0.052 | alvocidib -0.013 | Tubastatin A 0.016 | [6] 0.035 | defactinib -0.017 | rucaparib 0.001 | [7] -0.048 | encorafenib 0 | [8] 0.025

ETFDH (UniProt Q16134)
inactive: [1] 0.001 | volasertib 0.015 | [2] -0.009 | epoxomicin 0.008 | [3] -0.009 | [9] -0.035 | [4] -0.01 | rosiglitazone 0.022 | [5] -0.053 | [10] -0.023 | saracatinib 0.014 | sotrastaurin -0.008 | alvocidib -0.028 | Tubastatin A -0.006 | [6] 0.017 | defactinib -0.012 | rucaparib -0.018 | [7] 0.127 | encorafenib 0 | [8] 0.006

ERMAP (UniProt Q96PL5)
inactive: [1] 0.053 | volasertib 0.107 | [2] -0.022 | epoxomicin 0.029 | [3] -0.092 | [9] -0.038 | [4] 0.101 | rosiglitazone 0.019 | [5] 0.058 | [10] 0.1 | saracatinib 0.087 | sotrastaurin 0.189 | alvocidib 0.006 | Tubastatin A 0.078 | [6] -0.036 | defactinib -0.023 | rucaparib -0.029 | [7] -0.007 | encorafenib 0.034 | [8] -0.061

FAM192A (UniProt Q9GZU8)
inactive: [1] -0.061 | volasertib 0.077 | [2] -0.028 | epoxomicin -0.088 | [3] 0.015 | [9] -0.018 | [4] -0.062 | rosiglitazone -0.008 | [5] -0.055 | [10] -0.037 | saracatinib -0.04 | sotrastaurin 0.081 | alvocidib 0.047 | Tubastatin A -0.038 | [6] -0.026 | defactinib -0.011 | rucaparib -0.055 | [7] -0.101 | encorafenib -0.014 | [8] 0.076

ESRRA (UniProt P11474)
inactive: [1] 0.11 | volasertib -0.26 | [2] -0.123 | epoxomicin 0.147 | [3] 0.021 | [9] 0.044 | [4] -0.122 | [5] 0.04 | [10] -0.063 | saracatinib 0.062 | sotrastaurin -0.005 | alvocidib -0.025 | Tubastatin A -0.056 | [6] 0.044 | defactinib -0.06 | rucaparib -0.012 | [7] -0.063 | encorafenib -0.027 | [8] 0.025

Copied from above (2 entries):
FAM192A (UniProt Q9GZU8)
inactive: [1] -0.061 | volasertib 0.077 | [2] -0.028 | epoxomicin -0.088 | [3] 0.015 | [9] -0.018 | [4] -0.062 | rosiglitazone -0.008 | [5] -0.055 | [10] -0.037 | saracatinib -0.04 | sotrastaurin 0.081 | alvocidib 0.047 | Tubastatin A -0.038 | [6] -0.026 | defactinib -0.011 | rucaparib -0.055 | [7] -0.101 | encorafenib -0.014 | [8] 0.076

ESRRA (UniProt P11474)
inactive: [1] 0.11 | volasertib -0.26 | [2] -0.123 | epoxomicin 0.147 | [3] 0.021 | [9] 0.044 | [4] -0.122 | [5] 0.04 | [10] -0.063 | saracatinib 0.062 | sotrastaurin -0.005 | alvocidib -0.025 | Tubastatin A -0.056 | [6] 0.044 | defactinib -0.06 | rucaparib -0.012 | [7] -0.063 | encorafenib -0.027 | [8] 0.025

(list continues)

EXOSC6 (UniProt Q5RKV6)
inactive: [1] 0.023 | volasertib 0.061 | [2] -0.058 | epoxomicin 0.023 | [3] 0.016 | [9] 0.024 | [4] 0.008 | rosiglitazone -0.031 | [5] -0.071 | [10] 0.041 | saracatinib 0.052 | sotrastaurin 0.035 | alvocidib 0.003 | Tubastatin A -0.028 | [6] 0.018 | defactinib 0.01 | rucaparib 0.024 | [7] -0.025 | encorafenib -0.04 | [8] 0.01

EXOSC5 (UniProt Q9NQT4)
inactive: [1] 0.054 | volasertib 0.096 | [2] -0.011 | epoxomicin -0.015 | [3] 0.012 | [9] 0.02 | [4] -0.063 | rosiglitazone 0 | [5] -0.033 | [10] -0.03 | saracatinib -0.007 | sotrastaurin -0.012 | alvocidib 0.041 | Tubastatin A 0 | [6] -0.018 | defactinib 0.059 | rucaparib -0.012 | [7] -0.015 | encorafenib -0.013 | [8] 0.025

ERMP1 (UniProt Q7Z2K6)
inactive: [1] 0.03 | volasertib 0.015 | [2] -0.069 | epoxomicin -0.022 | [3] 0 | [9] 0.012 | [4] 0.007 | rosiglitazone 0.008 | [5] -0.026 | [10] 0.019 | saracatinib 0.046 | sotrastaurin 0.053 | alvocidib 0.01 | Tubastatin A -0.027 | [6] 0.001 | defactinib -0.051 | rucaparib -0.004 | [7] -0.04 | encorafenib -0.016 | [8] 0.039

EXOSC7 (UniProt Q15024)
inactive: [1] 0.069 | volasertib -0.03 | [2] -0.058 | epoxomicin -0.067 | [3] 0.023 | [9] 0.023 | [4] -0.027 | rosiglitazone -0.026 | [5] -0.044 | [10] 0.008 | saracatinib -0.006 | sotrastaurin 0.043 | alvocidib 0.054 | Tubastatin A -0.055 | [6] -0.039 | defactinib 0.012 | rucaparib 0.007 | [7] -0.058 | encorafenib -0.006 | [8] 0.017

EPN2 (UniProt O95208)
inactive: [1] -0.14 | volasertib -0.041 | [2] -0.053 | epoxomicin 0.047 | [3] -0.002 | [9] 0.044 | [4] 0.011 | rosiglitazone -0.096 | [5] -0.052 | [10] -0.167 | saracatinib 0.078 | sotrastaurin 0.007 | alvocidib 0.042 | Tubastatin A 0.006 | [6] 0.026 | defactinib -0.045 | rucaparib -0.015 | [7] -0.005 | encorafenib 0.041 | [8] -0.009
